Results are given in words; binding and its absence hold for the method and conditions named. Some binding calls cover weakened binding; strength is not graded here.
Assays:
RB-related protein [1] = target: T1, RB-related protein (UniProt Q9LKZ3); assay: yeast two-hybrid screen, confirmed by retransformation
T1 sequence (looked up): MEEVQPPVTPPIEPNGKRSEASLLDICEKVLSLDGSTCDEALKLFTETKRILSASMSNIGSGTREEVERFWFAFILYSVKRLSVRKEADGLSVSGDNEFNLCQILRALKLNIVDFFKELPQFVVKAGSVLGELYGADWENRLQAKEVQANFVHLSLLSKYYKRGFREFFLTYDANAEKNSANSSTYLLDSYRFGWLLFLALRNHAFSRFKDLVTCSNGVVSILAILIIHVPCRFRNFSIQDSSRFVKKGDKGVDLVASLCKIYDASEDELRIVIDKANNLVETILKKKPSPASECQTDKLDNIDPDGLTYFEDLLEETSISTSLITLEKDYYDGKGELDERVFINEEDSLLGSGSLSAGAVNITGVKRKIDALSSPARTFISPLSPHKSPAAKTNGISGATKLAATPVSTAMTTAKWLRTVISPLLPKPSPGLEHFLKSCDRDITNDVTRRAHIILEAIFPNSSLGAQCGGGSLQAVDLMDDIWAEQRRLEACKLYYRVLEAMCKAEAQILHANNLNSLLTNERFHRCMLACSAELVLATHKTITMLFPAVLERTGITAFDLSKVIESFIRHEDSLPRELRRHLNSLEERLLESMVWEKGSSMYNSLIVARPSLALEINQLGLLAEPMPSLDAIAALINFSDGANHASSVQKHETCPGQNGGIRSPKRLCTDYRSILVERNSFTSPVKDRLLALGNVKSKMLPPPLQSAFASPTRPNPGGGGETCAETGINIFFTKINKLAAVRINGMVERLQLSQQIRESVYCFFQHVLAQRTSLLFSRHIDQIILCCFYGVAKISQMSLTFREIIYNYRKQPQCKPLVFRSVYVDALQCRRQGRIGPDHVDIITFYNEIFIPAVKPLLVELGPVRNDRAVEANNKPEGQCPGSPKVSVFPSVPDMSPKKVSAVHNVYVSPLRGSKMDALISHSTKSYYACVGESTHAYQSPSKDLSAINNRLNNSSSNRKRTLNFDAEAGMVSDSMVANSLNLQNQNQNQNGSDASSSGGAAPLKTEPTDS

Chains of the proteins cited; added tags and fusions are not shown. Lines headed by an entry give the natural chain unless they say otherwise; changes in a name come on top.
UniProt P04386: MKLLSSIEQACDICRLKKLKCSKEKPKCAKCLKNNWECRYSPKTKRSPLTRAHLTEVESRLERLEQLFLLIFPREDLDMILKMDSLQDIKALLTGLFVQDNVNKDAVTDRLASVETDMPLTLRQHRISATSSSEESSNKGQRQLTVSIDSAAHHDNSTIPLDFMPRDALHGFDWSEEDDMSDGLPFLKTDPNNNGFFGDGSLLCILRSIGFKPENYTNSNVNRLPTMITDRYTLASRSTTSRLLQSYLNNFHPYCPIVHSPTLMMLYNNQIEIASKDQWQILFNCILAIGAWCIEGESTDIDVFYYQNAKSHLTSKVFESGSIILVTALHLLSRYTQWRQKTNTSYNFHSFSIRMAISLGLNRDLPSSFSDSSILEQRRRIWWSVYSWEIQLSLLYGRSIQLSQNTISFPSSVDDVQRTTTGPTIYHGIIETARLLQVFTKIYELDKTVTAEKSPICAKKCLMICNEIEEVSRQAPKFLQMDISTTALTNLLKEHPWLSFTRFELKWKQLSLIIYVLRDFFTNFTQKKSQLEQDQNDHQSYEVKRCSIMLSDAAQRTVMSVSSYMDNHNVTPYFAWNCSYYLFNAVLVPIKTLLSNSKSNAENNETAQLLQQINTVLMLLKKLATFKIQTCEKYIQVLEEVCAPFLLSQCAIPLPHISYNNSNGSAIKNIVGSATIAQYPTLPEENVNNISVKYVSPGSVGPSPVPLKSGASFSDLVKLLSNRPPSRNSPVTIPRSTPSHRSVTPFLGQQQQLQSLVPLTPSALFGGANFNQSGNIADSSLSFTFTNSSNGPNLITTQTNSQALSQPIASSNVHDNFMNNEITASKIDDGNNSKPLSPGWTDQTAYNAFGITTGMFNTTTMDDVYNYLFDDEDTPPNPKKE

ATHB12 [2] = target: T2, ATHB12 (UniProt Q9M276); assay: as above
T2 sequence (looked up): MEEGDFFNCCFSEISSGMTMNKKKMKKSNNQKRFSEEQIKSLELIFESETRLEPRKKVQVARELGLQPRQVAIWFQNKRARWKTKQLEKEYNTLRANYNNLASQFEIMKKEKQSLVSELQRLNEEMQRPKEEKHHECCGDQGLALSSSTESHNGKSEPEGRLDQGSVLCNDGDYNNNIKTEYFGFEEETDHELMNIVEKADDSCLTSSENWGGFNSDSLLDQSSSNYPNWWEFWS

ATHB12 [3] = target: T2, ATHB12; assay: yeast two-hybrid screen (DRL1 bait, cell suspension cDNA library), confirmed by retransformation; 1 clone
RB-related protein [4] = target: T1, RB-related protein; assay: yeast two-hybrid screen (DRL1 bait, cell suspension cDNA library), confirmed by retransformation; 2 clones

Measured: binding

DRL1 (DEFORMED ROOT AND LEAF1) entire coding sequence as yeast two-hybrid bait (GAL4 DNA-BD fusion in pGBKT7) (from UniProt P04386 1-147; Q9LMH0 1-302)
binds: all assays above

From US20050044592A1
